# Reference: the supplement of paper PMC11659162
# Some of the results follow. This is a noisy data set.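 The cells are a human neuroglioma line carrying a green fluorescent autophagy reporter.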
# Test system: H4 GFP-LC3
# Assay: cell viability (scaled to control) (fraction of control); higher = more viable cells
# Details: 5 µM; 24 h
smiles,measurement,value
Clc1ccc(C2CC3CCC2N3)cn1 (racemic),cell viability,1.3
